In paper PMC9456514, “Three-Dimensional Envelope and Subunit Interactions of the Plastid-Encoded RNA Polymerase from Sinapis alba” (International Journal of Molecular Sciences, 2022) one finds binding data, which are given here for one molecule.

These are yes or no findings as the source states them, for the method shown. In cells and extracts the contact can be indirect. Some entries that bind do so weakly or less than the wild type.

The test has as its target T1, β subunit of the plastid-encoded RNA polymerase (SaRpoB) (Sinapis alba (endogenous in cotyledon chloroplasts)) (UniProt P46818).
T1 sequence: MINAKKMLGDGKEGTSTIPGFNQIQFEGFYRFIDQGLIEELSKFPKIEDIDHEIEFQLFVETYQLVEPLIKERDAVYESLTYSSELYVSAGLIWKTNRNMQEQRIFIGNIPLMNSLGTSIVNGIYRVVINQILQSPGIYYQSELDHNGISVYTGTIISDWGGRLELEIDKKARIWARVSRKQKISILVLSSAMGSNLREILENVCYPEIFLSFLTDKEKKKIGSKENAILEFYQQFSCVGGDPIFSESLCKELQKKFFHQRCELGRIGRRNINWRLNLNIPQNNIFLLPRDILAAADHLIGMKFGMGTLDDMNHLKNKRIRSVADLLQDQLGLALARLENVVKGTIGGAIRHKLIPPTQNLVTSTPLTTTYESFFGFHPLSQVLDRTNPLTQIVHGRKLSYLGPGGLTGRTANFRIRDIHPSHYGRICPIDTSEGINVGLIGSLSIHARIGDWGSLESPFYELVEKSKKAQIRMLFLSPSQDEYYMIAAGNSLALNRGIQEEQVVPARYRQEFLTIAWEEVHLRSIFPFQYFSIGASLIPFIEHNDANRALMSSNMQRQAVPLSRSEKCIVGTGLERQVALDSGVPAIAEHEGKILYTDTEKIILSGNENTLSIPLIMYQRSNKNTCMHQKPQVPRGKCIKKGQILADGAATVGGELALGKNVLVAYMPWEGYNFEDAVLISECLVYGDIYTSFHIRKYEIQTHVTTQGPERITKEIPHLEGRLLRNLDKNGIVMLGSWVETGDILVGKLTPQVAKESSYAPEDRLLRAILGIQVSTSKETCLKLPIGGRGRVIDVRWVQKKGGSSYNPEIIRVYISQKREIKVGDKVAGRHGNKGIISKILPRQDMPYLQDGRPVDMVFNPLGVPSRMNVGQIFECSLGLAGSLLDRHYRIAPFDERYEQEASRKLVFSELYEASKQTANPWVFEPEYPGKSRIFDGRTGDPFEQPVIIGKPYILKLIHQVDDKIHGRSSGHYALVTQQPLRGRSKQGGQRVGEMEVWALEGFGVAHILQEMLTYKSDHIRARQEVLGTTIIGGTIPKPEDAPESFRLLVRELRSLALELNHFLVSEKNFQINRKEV
In words: cross-linking; PEP-enriched fraction from two independent purifications (replicates 2 and 3), a few micrograms, 100 µM DSBU, 1 h at room temperature, HEPES buffer pH 7.8; trypsin; nanoLC-MS/MS; MeroX 2.0, FDR cut-off 1%, minimum score 30; the partners were together in the native complex fraction.

B1: β’ subunit of the plastid-encoded RNA polymerase (SaRpoC1) (protein, UniProt P46819 1-688)
chain: MIDRYKHQQLRIGLVSPQQISAWATKKIPNGEIVGEVTKPYTFHYKTNKPEKDGLFCERIFGPIKSGICACGNYRVIGDEKGDPKFCEQCGVEFVDSRIRRYQMGYIKLTCPVTHVWYLKRLPSYIANLLDKPLKELEGLVYCDVCFDRNPNFSFARPITKKPTFLRLRGSFEYEIQSWKYSIPLFFTTQGFEIFRNREISTGAGAIREQLADLDLRIIIENSLVEWKQLGEEGPTGNEWEDRKIVRRKDFLVRRMELAKHFIRTNIEPEWMVLCLLPVLPPELRPIIQIEGGKLMSSDINELYRRVIYRNNTLTDLLTTSRSTPGELVMCQEKLVQEAVDTLLDNGIRGQPMRDGHNKVYKSFSDVIEGKEGRFRETLLGKRVDYSGRSVIVVGPSLSLHRCGLPREIAIELFQTFVIRGLIRQHLASNIGVAKSQIREKKPIVWEILQEVMQGHPVLLNRAPTLHRLGIQSFQPILVEGRTICLHPLVCKGFNADFDGDQMAVHVPLSLEAQAEARLLMFSHMNLLSPAIGDPISVPTQDMLIGLYVLTSGTRRGICANRYNPCNRKNYQNERIYETNYKYMKEPFFCNSYDAIGAYRQKRINLDSPLWLRWQLDQRVIASKEVPIEVHYESFGNYHEIYAHYLIVRSVKKETLYIYIRTTVGHISLYREIEEAIQGFSQACSYDT
On to B1, for which the binding result is reported as “binds”.
